{
  "source": "paper PMC9063470",
  "test_system": "MUC 1",
  "assay": "fluorescent strand-displacement aptasensor (RNase H recycling, GO quenching)",
  "details": "50 ng/mL, negligible signal; 20 mM Tris-HCl, 40 mM KCl, 8 mM MgCl2, 1 mM DTT, pH 7.8; 20 min Ap/P1 + CRP incubation; temperature not stated",
  "note": "For at least one entry, the source does not settle the construct or the ends of the probe. A negative result means that nothing was seen under these conditions.",
  "data": [
    {"sequence": "GGCAGGAAGACAAACATATAATTGAGATCGTTTGATGACTTTGTAAGAGTGTGGAATGGTCTGTGGTGCTGT / AGCACCACAGACCATTCCACACT [CRP aptamer (Ap) presented as Ap/P1 complex]", "values": [
      {"measurement": "binding result", "result": "no binding"}
    ]}
  ]
}
